Results from US8486986B2, “Microbiocides” (Syngenta Crop Protection LLC, priority 2007, dated 2013).
Some of these results come from one statement about several compounds together.

Legend:
Type in all cases: in vivo
Puccinia recondita = experiment: Action against Puccinia recondita/wheat (brownrust on wheat); details: wheat plants cv. Arina, 0.02% active ingredient sprayed, inoculated one day after application, assessed 10 days after inoculation
Septoria tritici = experiment: Action against Septoria tritici/wheat (Septoria leaf spot on wheat); details: wheat plants cv. Riband, 0.02% active ingredient sprayed, inoculated one day after application, assessed 18 days after inoculation
Uncinula necator = experiment: Action against Uncinula necator/grape (powdery mildew on grape); details: grape seedlings cv. Gutedel, 0.02% active ingredient sprayed, inoculated one day after application, assessed after 7 days at 26° C. and 60% r.h.
Botrytis cinerea = experiment: Action against Botrytis cinerea/tomato (Botrytis on tomatoes); details: tomato plants cv. Roter Gnom, 0.02% active ingredient sprayed, inoculated two days after application, assessed after 4 days at 20° C. and 95% r.h.
Alternaria solani = experiment: Action against Alternaria solani/tomato (early blight on tomatoes); details: tomato plants cv. Roter Gnom, 0.02% active ingredient sprayed, inoculated two days after application, assessed after 3 days at 20° C. and 95% r.h.
Pyrenophora teres = experiment: Action against Pyrenophora teres/barley (net blotch on barley); details: barley plants cv. Express, 0.02% active ingredient sprayed, inoculated two days after application, assessed 4 days after inoculation

Measured: infestation (disease incidence)

CC(Cc1sc(C#Cc2ccccc2)cc1Cl)NC(=O)c1cn(C)nc1C(F)F (centres unmarked) [Compound 1.38]
< 20%: Puccinia recondita | Septoria tritici | Uncinula necator | Botrytis cinerea | Alternaria solani | Pyrenophora teres

CC(Cc1sc(C#Cc2ccccc2)cc1Cl)NC(=O)c1ccccc1C(F)(F)F (centres unmarked) [Compound 6.14]
< 20%: Puccinia recondita | Septoria tritici | Uncinula necator | Pyrenophora teres

Cn1cc(C(=O)NCCc2c(C#CC3CC3)sc(Cl)c2Cl)c(C(F)F)n1 [Compound 7.27]
< 20%: Uncinula necator | Botrytis cinerea | Alternaria solani | Pyrenophora teres

CC(Cc1c(Cl)sc(C#Cc2ccccc2)c1Cl)NC(=O)c1cn(C)nc1C(F)F (centres unmarked) [Compound 7.38]
< 20%: Puccinia recondita | Septoria tritici | Uncinula necator | Botrytis cinerea | Alternaria solani | Pyrenophora teres

CC(Cc1c(Cl)sc(C#CC2CC2)c1Cl)NC(=O)c1ccccc1C(F)(F)F (centres unmarked) [Compound 12.6]
< 20%: Uncinula necator | Alternaria solani | Pyrenophora teres

CC(Cc1c(Cl)sc(C#Cc2ccccc2)c1Cl)NC(=O)c1ccccc1C(F)(F)F (centres unmarked) [Compound 12.30]
< 20%: Uncinula necator | Alternaria solani | Pyrenophora teres
